The values that follow come from paper PMC5634637.

No constants are given. Whether binding was seen depends on the method and setting. Some binding calls cover weakened binding; strength is not graded here.

For test [1], the target named is T1, mouse IL-10 receptor 1 (IL-10R1), on transfected CHO-K1 cells (co-transfected with empty vector) (mouse) (UniProt Q61727).
T1 sequence: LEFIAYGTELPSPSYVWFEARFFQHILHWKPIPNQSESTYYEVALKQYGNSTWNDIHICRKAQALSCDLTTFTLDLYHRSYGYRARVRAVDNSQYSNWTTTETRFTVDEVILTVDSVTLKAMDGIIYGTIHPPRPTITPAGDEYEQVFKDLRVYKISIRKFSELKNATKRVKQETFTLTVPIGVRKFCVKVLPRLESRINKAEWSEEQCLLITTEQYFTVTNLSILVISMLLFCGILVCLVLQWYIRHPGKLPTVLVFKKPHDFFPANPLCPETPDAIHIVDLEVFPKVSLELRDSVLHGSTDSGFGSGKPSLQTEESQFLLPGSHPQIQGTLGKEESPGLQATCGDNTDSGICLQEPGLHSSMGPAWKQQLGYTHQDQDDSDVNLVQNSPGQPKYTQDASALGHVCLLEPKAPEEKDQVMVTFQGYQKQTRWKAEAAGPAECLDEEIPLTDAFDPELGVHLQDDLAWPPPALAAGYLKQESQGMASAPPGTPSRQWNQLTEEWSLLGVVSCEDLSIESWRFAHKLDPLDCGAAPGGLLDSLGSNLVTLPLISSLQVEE
The test is described as follows: flow cytometry on cells; 1.0x10^6 transfected CHO-K1 cells incubated with 40 ng IL-10 for 1 h at 4°C; surface-bound IL-10 cross-linked for 2 h at 4°C with 2.5 mM BS3; detected with goat polyclonal anti-IL-10 and PE-conjugated donkey anti-goat IgG; mean fluorescent intensity of cells without IL-10 subtracted; only the binder purified. A general note: In flow cytometry, cells or beads pass a laser one at a time.

For test [2], the target named is T2, mouse IL-10R1 co-expressed with full mouse IL-10R2 on CHO-K1 cells (mouse) (UniProt Q61727+Q61190).
T2 sequence 1: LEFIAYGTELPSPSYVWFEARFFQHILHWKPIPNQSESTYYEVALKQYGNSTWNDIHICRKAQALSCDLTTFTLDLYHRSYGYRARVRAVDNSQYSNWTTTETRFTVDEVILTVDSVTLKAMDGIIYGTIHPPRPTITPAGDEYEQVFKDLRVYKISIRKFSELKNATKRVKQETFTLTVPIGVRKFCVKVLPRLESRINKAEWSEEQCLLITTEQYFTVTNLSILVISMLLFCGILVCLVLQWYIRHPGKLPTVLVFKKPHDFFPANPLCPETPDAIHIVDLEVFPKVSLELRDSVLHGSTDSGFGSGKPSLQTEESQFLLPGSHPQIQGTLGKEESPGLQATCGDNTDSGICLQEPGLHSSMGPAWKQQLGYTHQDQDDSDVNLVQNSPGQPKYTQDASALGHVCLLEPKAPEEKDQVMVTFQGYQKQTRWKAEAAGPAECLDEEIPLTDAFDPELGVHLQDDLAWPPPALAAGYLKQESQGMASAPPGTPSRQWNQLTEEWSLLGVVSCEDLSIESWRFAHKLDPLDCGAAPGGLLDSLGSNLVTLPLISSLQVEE
T2 sequence 2: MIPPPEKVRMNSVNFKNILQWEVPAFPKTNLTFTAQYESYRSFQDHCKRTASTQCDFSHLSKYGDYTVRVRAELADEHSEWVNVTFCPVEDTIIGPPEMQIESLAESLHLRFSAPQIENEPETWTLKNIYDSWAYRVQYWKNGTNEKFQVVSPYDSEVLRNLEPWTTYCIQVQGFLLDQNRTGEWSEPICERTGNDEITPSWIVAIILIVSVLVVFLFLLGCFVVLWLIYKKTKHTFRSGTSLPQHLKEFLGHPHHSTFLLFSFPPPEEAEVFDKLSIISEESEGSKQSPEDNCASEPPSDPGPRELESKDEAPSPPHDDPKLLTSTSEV
Described as above.

B1: Interleukin-10 (recombinant IL-10) (ligand, UniProt P18893 19-178)
chain: SRGQYSREDNNCTHFPVGQSHMLLELRTAFSQVKTFFQTKDQLDNILLTDSLMQDFKGYLGCQALSEMIQFYLVEVMPQAEKHGPEIKEHLNSLGEKLKTLRMRLRRCHRFLPCENKSKAVEQVKSDFNKLQDQGVYKAMNEFDIFINCIEAYMMIKMKS
Regarding B1, the binding result in test [1] and in test [2] was “binds” in each case.
